Data taken from ChEMBL document CHEMBL3988442, “University of Dundee, Small-Polar-MMV Screening Library” (2021).

Protein sequences, listed by entry. Tags and fused reporters are not part of them. Residues count along the entry.
UniProt P9WPC5, whole entry: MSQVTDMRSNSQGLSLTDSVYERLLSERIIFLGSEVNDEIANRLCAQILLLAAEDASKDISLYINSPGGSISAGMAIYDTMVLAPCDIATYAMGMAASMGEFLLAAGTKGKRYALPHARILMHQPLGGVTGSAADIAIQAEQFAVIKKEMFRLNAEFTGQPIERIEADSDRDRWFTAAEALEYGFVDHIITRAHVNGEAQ
UniProt P9WPC3, whole entry partner: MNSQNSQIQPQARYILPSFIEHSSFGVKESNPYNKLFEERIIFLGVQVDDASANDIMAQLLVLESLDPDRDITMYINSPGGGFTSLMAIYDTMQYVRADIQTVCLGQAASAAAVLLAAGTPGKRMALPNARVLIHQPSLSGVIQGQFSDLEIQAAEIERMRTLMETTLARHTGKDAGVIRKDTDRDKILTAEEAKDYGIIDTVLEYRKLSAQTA
UniProt P9WNZ1, whole entry: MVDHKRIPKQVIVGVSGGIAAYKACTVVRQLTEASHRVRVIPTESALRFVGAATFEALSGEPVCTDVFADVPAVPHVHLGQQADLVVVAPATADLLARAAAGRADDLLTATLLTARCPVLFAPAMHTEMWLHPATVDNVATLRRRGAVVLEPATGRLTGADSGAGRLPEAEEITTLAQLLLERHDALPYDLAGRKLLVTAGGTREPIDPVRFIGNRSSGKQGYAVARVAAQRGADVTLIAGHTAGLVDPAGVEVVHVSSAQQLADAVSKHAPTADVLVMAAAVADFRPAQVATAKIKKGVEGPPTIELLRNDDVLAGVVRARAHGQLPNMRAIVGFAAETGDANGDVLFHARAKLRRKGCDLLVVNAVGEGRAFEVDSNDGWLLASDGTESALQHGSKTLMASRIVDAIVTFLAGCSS
UniProt Q8IDJ8, 1-583: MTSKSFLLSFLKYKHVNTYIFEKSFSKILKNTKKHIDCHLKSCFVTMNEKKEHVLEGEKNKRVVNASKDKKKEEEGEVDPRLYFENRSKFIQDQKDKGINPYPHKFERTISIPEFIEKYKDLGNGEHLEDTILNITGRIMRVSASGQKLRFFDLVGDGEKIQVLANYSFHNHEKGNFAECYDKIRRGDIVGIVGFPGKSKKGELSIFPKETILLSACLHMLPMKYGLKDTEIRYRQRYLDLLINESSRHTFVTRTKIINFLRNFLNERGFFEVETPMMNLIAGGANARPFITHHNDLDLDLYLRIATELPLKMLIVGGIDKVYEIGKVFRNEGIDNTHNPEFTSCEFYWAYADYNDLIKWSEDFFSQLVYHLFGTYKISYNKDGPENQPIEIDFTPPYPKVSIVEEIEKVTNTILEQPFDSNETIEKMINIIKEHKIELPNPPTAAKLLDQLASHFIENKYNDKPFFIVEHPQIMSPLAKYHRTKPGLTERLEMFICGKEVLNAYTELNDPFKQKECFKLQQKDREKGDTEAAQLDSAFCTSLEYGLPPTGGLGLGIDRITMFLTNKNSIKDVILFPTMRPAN

A: 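Protease assay of ClpP1P2, read by the AMC dye that it sets free. Target: ClpP1P2, Mycobacterium tuberculosis (UniProt P9WPC5 and UniProt P9WPC3). Tested at 50 µM. Higher reads as stronger inhibition, judged from the few compounds that gave an IC50. Most other retested compounds had strongly negative values. Of about 69,000 compounds tested this way, about 10 (0.015%) reached 50% or more in at least one test.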
B: 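Enzyme assay of CoaBC with a phosphate dye (Biomol Green) read at 650 nm. Target: Coenzyme A biosynthesis protein CoaBC, Mycobacterium tuberculosis (UniProt P9WNZ1). Concentration: 30 µM. Higher reads as stronger inhibition, judged from the few compounds that gave an IC50. Most strong results did not repeat in a second test. Of about 67,000 compounds tested this way, about 40 (0.06%) reached 50% or more in at least one test.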
C: 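Lysine-tRNA ligase, Plasmodium falciparum 3D7 (UniProt Q8IDJ8). Enzyme assay of the cytosolic lysyl-tRNA synthetase in 384-well plates, read by luminescence. Tested at 30 µM. Direction is inferred from only a few compounds that gave an IC50; most scored high, so higher reads as stronger inhibition. Of about 69,000 compounds tested this way, about 49 (0.071%) reached 50% or more in at least one test.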
D: 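Cell assay of Leishmania donovani living inside macrophages; the read-out is not stated. Concentration: 30 µM. The record gives no direction; compounds that gave an IC50 in retests scored well above the rest, so higher reads as stronger inhibition. Of about 69,000 compounds tested this way, about 1,000 (1.5%) reached 50% or more in at least one test.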

The filed quantity is “Percent Effect” (%).
How 0% and 100% were set is not recorded. Most values in the screen are low, and negative values occur.
The compounds are a random part of those screened.
Two or more numbers in one place are separate tests of the same structure; such repeats can differ widely.

{"smiles": "Cc1ncsc1CNC(=O)NCC1(c2ccc3c(c2)OCO3)CC1", "A": 3.207, "B": -5.542, "C": -3.318, "D": 26.42}
{"smiles": "FC(F)Oc1ccc(CNCc2cc(Cl)c3c(c2)OCO3)cc1", "A": 0.2142, "B": -9.565, "C": 3.968}
{"smiles": "Cl.O[C@@H]1CN(Cc2cccc(F)c2)CC[C@H]1NCc1ccccn1", "D": 29.38}
{"smiles": "O=C(c1ccsc1)N1C[C@H]2CN(Cc3cccc(F)c3)C(=O)[C@H]2C1", "A": -27.49, "B": 5.863, "C": 3.005}
{"smiles": "Cn1cc(NC(=O)CNC(=O)N2CCN(c3cccc(Cl)c3)CC2)cn1", "A": 13.18, "B": -1.179, "C": 3.264, "D": 15.82}
{"smiles": "Cn1cnc2c1C(COCc1cccnc1)N(Cc1ccccn1)CC2", "stereo": "stereo not shown", "A": -2.877, "B": 9.518, "C": 3.726, "D": 6.459}
{"smiles": "CCc1ccc(C2COCCN2C(=O)Nc2ccc(C#N)cc2)o1", "stereo": "stereo not shown", "A": -5.173, "B": -3.171, "C": -1.308, "D": 5.037}
{"smiles": "Cc1nc(CN2CCc3cnc(C(C)C)nc3C2)oc1C", "A": -28.12, "B": -1.921, "C": 3.018, "D": -14.23}
{"smiles": "CC(C)(CNCc1ccc(OCc2cscn2)cc1)C(N)=O.Cl", "D": -3.711}
{"smiles": "O=C(C1CCCC1)N1C[C@H]2CNC[C@H]2C1", "A": -8.068, "B": 2.188, "C": 1.633}
{"smiles": "NCC1CN(C(=O)c2cccc(-n3cccn3)c2)CCO1", "stereo": "stereo not shown", "A": 1.481, "B": -1.811, "C": 5.928, "D": 20.78}
{"smiles": "COC(=O)C(CCSC)NC(=O)Cc1c(C)nn(-c2ccccc2)c1C", "stereo": "stereo not shown", "A": -10.74, "B": 3.137, "C": 4.744, "D": 12.28}
{"smiles": "CC1CCN(C(=O)[C@@H]2C[C@H]3OCC[C@H]3N(Cc3ccoc3)C2)CC1", "A": 6.749, "B": 1.523, "C": 0.3948}
{"smiles": "O=C(CN1CCN(CCO)CC1)NCCc1c(F)cccc1F", "A": -4.194, "B": -0.2169, "C": -0.6549, "D": 31.55}
{"smiles": "O=C(O)CN1CCC(F)(F)C2(CCN(c3ccccc3)C2)C1", "stereo": "stereo not shown", "A": 11.72, "B": "43.39 and 32.92", "C": -3.504}
{"smiles": "Cc1nc(C)n(CC2CCCN2CCCOc2ccc(C#N)cc2)n1", "stereo": "stereo not shown", "A": -14.01, "B": 1.837, "C": -0.7366, "D": 26.41}
{"smiles": "CC(=O)Nc1ccsc1C(=O)Nc1cnc2n1CCCC2", "A": 1.817, "B": 6.362, "C": 5.816, "D": 12.21}
{"smiles": "O=C(C1CCCC1)N1C[C@@H]2CCN(c3cnccn3)C[C@@H]2C1", "A": 0.6219, "B": 5.412, "C": 5.604}
{"smiles": "CN(C)c1nccc(CNS(=O)(=O)c2ccc(F)c(Cl)c2)n1", "A": 5.669, "B": 0, "C": 1.134, "D": 16.56}
{"smiles": "Cc1nc2ccc(C(=O)N3CCn4c(C)nnc4C3)cc2nc1C", "A": -29.29, "B": -1.02, "C": 1.516, "D": -0.1988}
{"smiles": "CC1(C)Cc2c(cnn2-c2cccc(F)c2)C(NC2CCSCC2)C1", "stereo": "stereo not shown", "A": -8.692, "B": -8.061, "C": -3.667, "D": 21.8}

2 of the entries, repeated:

{"smiles": "CC1CCN(C(=O)[C@@H]2C[C@H]3OCC[C@H]3N(Cc3ccoc3)C2)CC1", "A": 6.749, "B": 1.523, "C": 0.3948}
{"smiles": "CC(C)(CNCc1ccc(OCc2cscn2)cc1)C(N)=O.Cl", "D": -3.711}